Results are given in words; binding and its absence hold for the method and conditions named. Binding seen in cells or lysates may run through a third protein. These calls come from enrichment with a bait or labelling near it, and not all partners need be listed.

The chains behind the UniProt entries cited, without tags or fusion partners. Residues count along the entry.
UniProt Q5T2D3: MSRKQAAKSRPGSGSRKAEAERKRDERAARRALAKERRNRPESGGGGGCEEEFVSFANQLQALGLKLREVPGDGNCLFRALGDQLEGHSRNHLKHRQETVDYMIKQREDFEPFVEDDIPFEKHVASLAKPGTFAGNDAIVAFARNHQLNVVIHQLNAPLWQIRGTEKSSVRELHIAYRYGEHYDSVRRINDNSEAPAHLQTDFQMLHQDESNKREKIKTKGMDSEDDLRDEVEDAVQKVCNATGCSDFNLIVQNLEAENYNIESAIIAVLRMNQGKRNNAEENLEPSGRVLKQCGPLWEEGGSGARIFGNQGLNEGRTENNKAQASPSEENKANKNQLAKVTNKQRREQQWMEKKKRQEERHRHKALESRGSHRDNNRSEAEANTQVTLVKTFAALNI
UniProt P11021, residues 19-654: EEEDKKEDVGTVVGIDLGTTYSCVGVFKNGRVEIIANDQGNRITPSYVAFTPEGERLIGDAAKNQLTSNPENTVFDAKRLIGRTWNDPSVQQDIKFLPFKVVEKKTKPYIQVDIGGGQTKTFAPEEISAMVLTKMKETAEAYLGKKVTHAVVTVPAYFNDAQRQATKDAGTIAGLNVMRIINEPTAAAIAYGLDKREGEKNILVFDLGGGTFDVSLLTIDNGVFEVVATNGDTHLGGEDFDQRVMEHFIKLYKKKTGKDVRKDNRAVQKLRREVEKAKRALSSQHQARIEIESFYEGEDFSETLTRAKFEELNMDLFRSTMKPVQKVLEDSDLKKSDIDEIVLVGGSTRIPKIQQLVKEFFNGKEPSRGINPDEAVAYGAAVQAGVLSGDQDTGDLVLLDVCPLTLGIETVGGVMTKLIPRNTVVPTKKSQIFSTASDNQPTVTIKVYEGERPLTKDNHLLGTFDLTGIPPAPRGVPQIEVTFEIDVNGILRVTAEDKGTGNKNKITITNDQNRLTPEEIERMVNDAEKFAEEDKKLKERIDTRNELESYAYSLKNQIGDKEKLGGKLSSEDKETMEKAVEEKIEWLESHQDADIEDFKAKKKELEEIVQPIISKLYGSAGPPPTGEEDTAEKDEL
UniProt P67809: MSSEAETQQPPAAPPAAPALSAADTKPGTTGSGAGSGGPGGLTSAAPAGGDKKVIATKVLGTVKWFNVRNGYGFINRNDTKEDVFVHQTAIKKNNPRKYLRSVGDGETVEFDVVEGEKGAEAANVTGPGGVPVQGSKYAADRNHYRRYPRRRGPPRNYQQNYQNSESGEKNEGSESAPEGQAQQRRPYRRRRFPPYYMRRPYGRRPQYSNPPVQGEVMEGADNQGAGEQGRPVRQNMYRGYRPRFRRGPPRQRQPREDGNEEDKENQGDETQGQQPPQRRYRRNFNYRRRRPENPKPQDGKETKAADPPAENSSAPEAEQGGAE
UniProt Q14258: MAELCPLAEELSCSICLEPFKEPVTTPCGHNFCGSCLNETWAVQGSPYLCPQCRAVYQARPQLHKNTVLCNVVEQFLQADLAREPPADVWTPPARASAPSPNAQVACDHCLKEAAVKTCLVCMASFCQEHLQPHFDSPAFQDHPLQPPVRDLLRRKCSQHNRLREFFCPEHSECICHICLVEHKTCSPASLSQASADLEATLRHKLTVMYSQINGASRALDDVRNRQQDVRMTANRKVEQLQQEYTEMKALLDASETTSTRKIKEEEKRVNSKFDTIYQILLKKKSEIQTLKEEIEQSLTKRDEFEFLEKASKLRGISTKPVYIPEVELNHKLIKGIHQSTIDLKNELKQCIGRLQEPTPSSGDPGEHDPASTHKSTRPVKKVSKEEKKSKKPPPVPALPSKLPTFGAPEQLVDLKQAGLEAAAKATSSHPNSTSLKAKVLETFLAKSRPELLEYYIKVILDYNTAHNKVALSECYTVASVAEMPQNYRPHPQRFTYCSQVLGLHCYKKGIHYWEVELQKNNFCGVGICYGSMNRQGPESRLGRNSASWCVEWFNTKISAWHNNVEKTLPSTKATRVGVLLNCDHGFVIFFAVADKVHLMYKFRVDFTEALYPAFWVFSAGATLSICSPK

This assay deals with OTUD3 (bait of the mass spectrometry analysis) (human) (UniProt Q5T2D3). Briefly: affinity purification with mass spectrometry; OTUD3 immunoprecipitated with Protein A-G agarose from HEK293T cells; IP buffer 50 mM Tris-HCl pH 8.0, 100 mM NaCl, 1 mM EDTA, 1% Nonidet P40; in-gel digestion, LC-MS/MS.

As to “GRP78 in HEK293T lysate (from UniProt P11021 19-654)”, the binding entry is “binds”. Under “YB1 (in HEK293T lysate) (from UniProt P67809 1-324)” stands “binds”; under “Trim25 (in HEK293T lysate) (from UniProt Q14258 1-630)”, “binds”.

The record behind these values is PMC6606649.
